The target of test [1] is TbPam16-HA (RNAi-resistant, full-length TbPam16 with C-terminal HA-tag) (T. brucei) (UniProt Q38D74). Description: affinity purification with mass spectrometry.
Test [2] shares this target. The test is described as follows: affinity purification with mass spectrometry. The source holds these as a separate data set.

Our source for the binding values is article doi:10.1101/2023.12.05.570232.

Read-outs that look alike come from different tables or passages of the source. These are yes or no findings as the source states them, for the method shown. In cells and extracts the contact can be indirect. Here binding means that the protein was enriched with, or labelled near, the bait; the list need not be complete.

For Tb927.8.4190 (from UniProt Q57W16), the binding entry in test [1] is “binds”. Consider TbPam18 (from UniProt Q57YN2), for which the binding result in test [1] and in test [2] was “binds” in each case. With TbCOQ9 (from UniProt Q57UL9), the binding result in test [1] is “binds”.
